Measured values taken from article doi:10.1101/818187.
Results are given in words; binding and its absence hold for the method and conditions named. Binding seen in cells or lysates may run through a third protein. Where a sequence is shown, tags or fusion partners need not be part of it.

Protein sequences, listed by entry. Tags and fused reporters are not part of them. Lines headed by an entry give the natural chain unless they say otherwise; changes in a name come on top.
UniProt Q9ZNS0: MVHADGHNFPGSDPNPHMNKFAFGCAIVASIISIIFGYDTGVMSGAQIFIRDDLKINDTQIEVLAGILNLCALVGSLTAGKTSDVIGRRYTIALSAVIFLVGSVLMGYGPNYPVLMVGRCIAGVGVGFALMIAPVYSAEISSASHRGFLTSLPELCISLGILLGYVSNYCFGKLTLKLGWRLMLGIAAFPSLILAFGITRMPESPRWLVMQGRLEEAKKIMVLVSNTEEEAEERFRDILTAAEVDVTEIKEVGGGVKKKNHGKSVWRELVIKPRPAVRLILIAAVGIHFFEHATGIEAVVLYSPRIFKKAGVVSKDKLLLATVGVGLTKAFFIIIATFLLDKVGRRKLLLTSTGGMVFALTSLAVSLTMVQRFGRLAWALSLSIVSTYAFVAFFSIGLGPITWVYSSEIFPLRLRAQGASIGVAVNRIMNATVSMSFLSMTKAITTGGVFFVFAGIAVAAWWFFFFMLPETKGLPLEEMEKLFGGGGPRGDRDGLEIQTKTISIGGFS

Target: T1, WOX5-mVenus (WUSCHEL-RELATED HOMEOBOX 5 fused to mVenus), β-estradiol inducible, in N. benthamiana (Arabidopsis thaliana) (UniProt Q8H1D2)
T1 sequence: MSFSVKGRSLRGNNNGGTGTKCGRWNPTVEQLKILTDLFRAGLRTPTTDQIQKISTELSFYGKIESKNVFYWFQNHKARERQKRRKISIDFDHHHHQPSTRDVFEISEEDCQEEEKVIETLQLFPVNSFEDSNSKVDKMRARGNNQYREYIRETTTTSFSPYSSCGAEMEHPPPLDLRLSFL
Test: FRET or BRET

binding: no binding
Substance: PLT3ΔQ-mCherry (PLT3 with its polyQ domains deleted, fused to mCherry) (from UniProt Q9ZNS0)
